Consider 42 sequences from publication PMC7819943, “Rice protein-binding microarrays: a tool to detect cis-acting elements near promoter regions in rice”.

Chains of the proteins cited; added tags and fusions are not shown.
UniProt Q0JBA9, entry or part of it: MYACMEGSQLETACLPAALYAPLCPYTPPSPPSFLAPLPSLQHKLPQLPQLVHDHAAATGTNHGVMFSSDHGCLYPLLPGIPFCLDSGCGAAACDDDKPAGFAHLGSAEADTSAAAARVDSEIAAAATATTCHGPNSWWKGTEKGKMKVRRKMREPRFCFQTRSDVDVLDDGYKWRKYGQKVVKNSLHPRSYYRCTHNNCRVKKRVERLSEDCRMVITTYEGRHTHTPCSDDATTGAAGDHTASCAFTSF

The list shows a part of the results.

In the assay the target is OsWRKY34 (Oryza sativa, UniProt Q0JBA9 1-250). As to the kind of experiment: protein-binding microarray (RPBM); PBS, 2% BSA, 51.3 ng/ul salmon testes DNA, 50 uM zinc acetate, 200 nM TF, 25 C, 1 h; high values mean tight binding. The following applies: protein: recombinant; tags: N-terminal polyhistidine and DsRed monomer fusion (pET32a); label: CyDye5-dUTP incorporated in the synthesized complementary strand; 3' TTTTT single-stranded linker to array surface; dsDNA, one strand shown. In a few lines:
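Polyhistidine-tagged DsRed fusions of transcription factors, joined at the N-terminus, were expressed in E. coli BL21-CodonPlus and isolated on Ni–NTA. They were incubated at 200 nM for 1 h at 25 °C on a custom Agilent array, double-stranded and BSA-blocked, in PBS with 2% BSA, salmon testes DNA and 50 µM zinc acetate. The binding signal is per-feature fluorescence intensity (arbitrary units) read on an Axon 4000B scanner after washing.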
For the sequence “TACATATATACTCCCTCCGTGTACTTCTCTAAAACCCAACCGGAGTCACCTAGTGCAG”, the binding signal was 8630 fluorescence intensity (a.u.).
Turning to “GTTTCACACTCATTCACCTCGTTTGATTGCACATTATGTCCGGAGTCACCTAGTGCAG”, the binding signal is 8300 fluorescence intensity (a.u.).
Take “CACTCGCACCCATCTCATCACCGAGTCACCGGCACCGGTCCGGAGTCACCTAGTGCAG”: the binding signal is 11800 fluorescence intensity (a.u.).
In the case of “GAGACTACCTTGTGCACTGCATTTCGAGTTTTTACCTGACCGGAGTCACCTAGTGCAG”, the binding signal was 10500 fluorescence intensity (a.u.).
For “CCCTAGAACCCACTCTGCCCGCGCCCGGAGAAACCCTAGCCGGAGTCACCTAGTGCAG”, the binding signal is 8070 fluorescence intensity (a.u.).
On to “AATTTATCCATACCATTTTTCTTGTTTTAAAATTCGAATACGGAGTCACCTAGTGCAG”, for which the binding signal is 9750 fluorescence intensity (a.u.).
Regarding “ACTAACTTAGCTAGCGTGACAACTGGCACGCTCATTTTCTCGGAGTCACCTAGTGCAG”, the binding signal was 9180 fluorescence intensity (a.u.).
With “TGGGAGTACTACACTGCACTGCATCGCGCAACCAACCAACCGGAGTCACCTAGTGCAG” the figure was 8540 fluorescence intensity (a.u.); with “GTTTATTTTTCAGCCTTTACTTTTAGATTGCTAAGAACACCGGAGTCACCTAGTGCAG”, 9770 fluorescence intensity (a.u.).
The same measure for “ACCACTGCACGGCCGCTCACCCACGTCAACGTTTAACCTGCGGAGTCACCTAGTGCAG”: 9460 fluorescence intensity (a.u.); for “AGTTTTGGGGTGAATTCAATTGAGGTTGCTACAGTTTAATCGGAGTCACCTAGTGCAG”: 8760 fluorescence intensity (a.u.); for “CATACGGCCCATATGCTGGCCTTGTTGACATATTGCGACTCGGAGTCACCTAGTGCAG”: 11400 fluorescence intensity (a.u.).
On to “CATTACGTCACACCTCATTCAGAAATTTCCATCTTCTTAACGGAGTCACCTAGTGCAG”, for which the binding signal is 11900 fluorescence intensity (a.u.).
With “ATGCCGCTATCACCACTAGTATACACGTAAAATATCTGTCCGGAGTCACCTAGTGCAG” the figure was 10800 fluorescence intensity (a.u.); with “TGCTATGCCAGCTATCCTAATGTCACTTATTCATGAAAACCGGAGTCACCTAGTGCAG”, 8480 fluorescence intensity (a.u.); with “ACCTTTTTCATCCAGTTCCATCATCGAGGACCGTCATTTGCGGAGTCACCTAGTGCAG”, 8600 fluorescence intensity (a.u.).
With “TTCTATCCCGCGGGACAGGTATATTTTTGCAAAATTTTCCCGGAGTCACCTAGTGCAG” the figure was 9040 fluorescence intensity (a.u.); with “TCCCCGCCTGTTGCCGGCCACCACCCGGTCCATTCTACGACGGAGTCACCTAGTGCAG”, 9100 fluorescence intensity (a.u.).
As for “GAAGCGGGGATCGGGGTCTAGGGAGAGAAAGAGAGACAGCCGGAGTCACCTAGTGCAG”, the binding signal was 9730 fluorescence intensity (a.u.).
As to “GAGTCGTTACACTTATCTATTTAGTTTTCTGTTTGCTACACGGAGTCACCTAGTGCAG”, the binding signal is 12500 fluorescence intensity (a.u.).
Take “TTTTCAGCGTGTGCATCACATGGTCCGTATCTTTAATACTCGGAGTCACCTAGTGCAG”: the binding signal was 8520 fluorescence intensity (a.u.).
Consider “GCGCATCCGAGCACGCATACTTTCGATCGGCGACTACGTCCGGAGTCACCTAGTGCAG”, for which the binding signal was 8810 fluorescence intensity (a.u.).
With “CATTTATTTTATTGTGACTTGATTCATCATCAAATGTTCTCGGAGTCACCTAGTGCAG”, the binding signal was 8870 fluorescence intensity (a.u.).
The same measure for “GGCTACCTTGATATTGTTTCTTAGTTTTTCATACTGAATTCGGAGTCACCTAGTGCAG”: 8330 fluorescence intensity (a.u.).
With “ATTAAAAACACCTTTGATTTTACACTTCATTTTTCTTTCCCGGAGTCACCTAGTGCAG”, the binding signal was 8910 fluorescence intensity (a.u.).
In the case of “TTATCACATTATTTTTCATTATATACTCCGTTTTTTTATTCGGAGTCACCTAGTGCAG”, the binding signal is 9100 fluorescence intensity (a.u.).
The same measure for “TTGAGTGATTTTGTACATTAGATACCATGGTGCCCCATATCGGAGTCACCTAGTGCAG”: 8220 fluorescence intensity (a.u.); for “CAATGGCTTACGACGAGACGACTCACCTTTGAATTCCACGCGGAGTCACCTAGTGCAG”: 9460 fluorescence intensity (a.u.); for “CCATTCCTGTGATAGCCCTTAATGATCAGTTAGCATGCATCGGAGTCACCTAGTGCAG”: 8920 fluorescence intensity (a.u.).
With “TTTAGTCCCAACACGCTCATAATTTCTTTTTTAAAAAATACGGAGTCACCTAGTGCAG”, the binding signal was 8100 fluorescence intensity (a.u.).
With “GAAGCGCCGCCTCCTCTTAAGTCTTAACCCAACTGGTTTGCGGAGTCACCTAGTGCAG”, the binding signal was 8380 fluorescence intensity (a.u.).
Consider “ATCGATCCATCTCTGCACAGCTGCACTTGCATTTCAGCCACGGAGTCACCTAGTGCAG”, for which the binding signal was 9960 fluorescence intensity (a.u.).
The same measure for “TGATGTATCTGTTCTGTGGCTGCTTTACGCCCATCACCTTCGGAGTCACCTAGTGCAG”: 10000 fluorescence intensity (a.u.); for “AAAGCCGCACACGTGTTTCCCGCGACCGCGCCACGTCACCCGGAGTCACCTAGTGCAG”: 8790 fluorescence intensity (a.u.).
Turning to “TTCTAGTGGAGCTATTGCATTTTTTGCGTGCTCTTATCCTCGGAGTCACCTAGTGCAG”, the binding signal was 8030 fluorescence intensity (a.u.).
“CGCCTCGACGGGTTTGGATCTCGGGGTGGGATTAGAGGGGCGGAGTCACCTAGTGCAG”: the binding signal was 12900 fluorescence intensity (a.u.).
With “CCTAACCTGGCCCTTATCATTGTGCGTTGGAGCACGTTTTCGGAGTCACCTAGTGCAG” the figure was 9680 fluorescence intensity (a.u.); with “AGTTGTGATTATTGTTTAACCTATTTCCCTGAAGAAATTCCGGAGTCACCTAGTGCAG”, 8090 fluorescence intensity (a.u.).
For “ATATACTCTCTCCGTTTCACAATGTAAGTCATTCTAGCGTCGGAGTCACCTAGTGCAG”, the binding signal was 10700 fluorescence intensity (a.u.).
For the sequence “TTTGCACTGGTTTTGTAAGTTGGGGATGTATTGTATGAGGCGGAGTCACCTAGTGCAG”, the binding signal is 9560 fluorescence intensity (a.u.).
As for “AAATCAAGCACTAATCCACTCTGACACGTCATCATGTATCCGGAGTCACCTAGTGCAG”, the binding signal was 8380 fluorescence intensity (a.u.).
On to “AACTCCCAAAACCTCTTCTGCGGCGGCCGCTTTCGTTAGTCGGAGTCACCTAGTGCAG”, for which the binding signal was 8520 fluorescence intensity (a.u.).
